Source: paper PMC7162537
Residue numbers refer to the chain shown, from its start. Results are given in words; binding and its absence hold for the method and conditions named. Binding seen in cells or lysates may run through a third protein. Some binding calls cover weakened binding; strength is not graded here. For part of these data: Where a sequence is shown, tags or fusion partners need not be part of it.

Sequences of proteins named here, by UniProt entry; tags and fusion partners are left off.
UniProt P54132: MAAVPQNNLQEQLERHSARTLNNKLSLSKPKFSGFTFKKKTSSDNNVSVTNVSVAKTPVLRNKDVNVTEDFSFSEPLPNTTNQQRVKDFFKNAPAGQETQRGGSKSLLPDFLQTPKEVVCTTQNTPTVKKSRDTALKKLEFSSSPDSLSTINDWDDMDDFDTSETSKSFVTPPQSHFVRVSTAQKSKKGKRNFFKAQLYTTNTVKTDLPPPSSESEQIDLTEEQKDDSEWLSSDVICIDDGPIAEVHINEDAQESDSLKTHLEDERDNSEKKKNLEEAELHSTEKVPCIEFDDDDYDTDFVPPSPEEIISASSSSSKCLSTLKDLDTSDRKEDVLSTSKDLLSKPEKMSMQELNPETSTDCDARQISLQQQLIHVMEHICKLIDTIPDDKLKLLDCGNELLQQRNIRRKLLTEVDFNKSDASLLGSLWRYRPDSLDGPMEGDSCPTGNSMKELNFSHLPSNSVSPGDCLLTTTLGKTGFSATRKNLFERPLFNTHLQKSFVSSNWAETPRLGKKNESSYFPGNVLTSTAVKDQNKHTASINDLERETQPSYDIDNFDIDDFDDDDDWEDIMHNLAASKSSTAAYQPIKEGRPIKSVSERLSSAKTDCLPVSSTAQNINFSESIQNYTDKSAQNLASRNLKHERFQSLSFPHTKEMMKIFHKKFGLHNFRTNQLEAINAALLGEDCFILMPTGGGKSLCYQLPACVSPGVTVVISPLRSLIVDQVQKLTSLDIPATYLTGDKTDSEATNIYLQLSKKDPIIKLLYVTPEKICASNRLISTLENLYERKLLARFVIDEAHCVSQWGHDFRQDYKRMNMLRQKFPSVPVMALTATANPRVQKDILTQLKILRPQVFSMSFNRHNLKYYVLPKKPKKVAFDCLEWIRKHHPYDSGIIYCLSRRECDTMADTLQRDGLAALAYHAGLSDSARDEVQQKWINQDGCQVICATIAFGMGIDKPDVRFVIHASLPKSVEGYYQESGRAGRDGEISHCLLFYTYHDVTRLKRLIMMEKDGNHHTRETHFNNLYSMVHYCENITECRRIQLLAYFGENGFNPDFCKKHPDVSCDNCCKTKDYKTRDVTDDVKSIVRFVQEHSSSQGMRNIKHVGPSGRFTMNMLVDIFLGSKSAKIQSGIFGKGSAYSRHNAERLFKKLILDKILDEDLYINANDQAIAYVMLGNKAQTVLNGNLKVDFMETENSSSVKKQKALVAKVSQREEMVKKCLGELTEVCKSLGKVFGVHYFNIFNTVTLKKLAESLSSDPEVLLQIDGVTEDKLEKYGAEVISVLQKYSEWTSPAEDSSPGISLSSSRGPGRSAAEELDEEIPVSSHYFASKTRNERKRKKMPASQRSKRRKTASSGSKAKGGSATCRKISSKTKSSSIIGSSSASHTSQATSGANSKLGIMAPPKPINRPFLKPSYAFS

What was measured:
[1] = molecular target: T1, FANCJ helicase (human (endogenous in U2OS)) (UniProt Q9BX63); assay: co-IP; endogenous proteins; nuclear extracts of ER-AsiSI U2OS cells precipitated with antibodies against FANCJ, BRCA1 or CtIP, Protein A/G beads; 300 nM 4-OHT for 4 h (FANCJ IP also before 4-OHT); also in FANCJ depleted or BRCA1 depleted cells; lysis buffer 20 mM Tris-HCl pH 7.5, 100 mM NaCl, 1% NP-40 with Benzonase; 4°C
T1 sequence: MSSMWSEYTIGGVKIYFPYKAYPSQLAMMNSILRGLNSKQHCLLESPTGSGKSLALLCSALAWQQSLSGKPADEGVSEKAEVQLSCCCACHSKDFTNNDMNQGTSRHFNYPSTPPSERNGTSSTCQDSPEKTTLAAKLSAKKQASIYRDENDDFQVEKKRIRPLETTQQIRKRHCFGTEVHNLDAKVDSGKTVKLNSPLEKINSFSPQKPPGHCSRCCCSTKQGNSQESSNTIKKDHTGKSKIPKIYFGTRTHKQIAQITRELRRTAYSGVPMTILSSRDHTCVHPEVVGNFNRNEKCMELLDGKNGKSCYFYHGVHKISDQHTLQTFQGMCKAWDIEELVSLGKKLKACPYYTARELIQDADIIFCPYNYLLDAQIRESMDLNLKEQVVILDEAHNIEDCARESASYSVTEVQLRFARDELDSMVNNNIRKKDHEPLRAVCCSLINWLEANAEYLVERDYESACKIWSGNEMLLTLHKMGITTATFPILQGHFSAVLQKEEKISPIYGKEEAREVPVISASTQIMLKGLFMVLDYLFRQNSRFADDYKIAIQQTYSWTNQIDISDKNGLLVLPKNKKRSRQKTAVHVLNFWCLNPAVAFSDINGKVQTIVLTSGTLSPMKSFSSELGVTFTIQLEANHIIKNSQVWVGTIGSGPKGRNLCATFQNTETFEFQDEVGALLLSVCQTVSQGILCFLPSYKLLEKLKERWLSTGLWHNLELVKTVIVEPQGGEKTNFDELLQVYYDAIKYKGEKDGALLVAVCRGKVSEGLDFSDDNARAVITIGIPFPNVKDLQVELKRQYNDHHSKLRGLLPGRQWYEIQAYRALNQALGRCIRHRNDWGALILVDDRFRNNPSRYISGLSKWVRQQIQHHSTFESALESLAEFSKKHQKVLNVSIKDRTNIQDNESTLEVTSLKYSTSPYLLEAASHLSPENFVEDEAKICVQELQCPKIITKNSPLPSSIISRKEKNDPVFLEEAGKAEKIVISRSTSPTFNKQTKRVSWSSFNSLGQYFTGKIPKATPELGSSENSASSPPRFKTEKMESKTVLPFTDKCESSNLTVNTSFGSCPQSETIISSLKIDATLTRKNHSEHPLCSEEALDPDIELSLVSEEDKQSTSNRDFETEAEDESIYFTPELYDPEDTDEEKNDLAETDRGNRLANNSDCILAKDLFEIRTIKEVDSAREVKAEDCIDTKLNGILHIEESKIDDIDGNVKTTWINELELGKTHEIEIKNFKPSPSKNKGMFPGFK

[2] = molecular target: T2, FANCJ K1249R-HA-6xHis (human) (UniProt Q9BX63); assay: co-IP; FANCJ depleted ER-AsiSI U2OS cells expressing shRNA resistant FANCJ-HA-6xHis (WT or mutants), 300 nM 4-OHT for 4 h; nuclear extracts precipitated with antibodies against the HA tag; blots for endogenous partners
T2 sequence: T1 sequence with K1249R

[3] = molecular target: T3, FANCJ S990A-HA-6xHis (human) (UniProt Q9BX63); assay: as above
T3 sequence: T1 sequence with S990A

Measured: binding

BLM helicase (from UniProt P54132 1-1417)
binds: all assays above
